Source: patent US20250154157A1, “HETEROCYCLIC COMPOUNDS USEFUL FOR TREATING A ERK5-MEDIATED DISEASE” (Cancer Research Technology Limited, priority 2022, published 2025)
For at least one compound, name, drawing or mass did not settle the structure.

Key:
[1] = target: T1, ERK5 (Mus musculus, UniProt Q9WVS8); assay: In vivo ERK5 knockdown, immunoblotting of tumour and terminal blood samples, EMT6 model (FIG. 14.A); details: OS11 20 mg/kg, Balb/c mice with orthotopic EMT6 tumours, end point
T1 construct: from tissue; host or cells: EMT6 orthotopic tumour biopsies and terminal blood (PBMCs) of Balb/c mice

[2] = target: BRD4 (Homo sapiens, UniProt O60885); assay: Immunoblotting, comparison with Example 7 of WO2021061894 in MDA-MB-468 cells (FIGS. 12 and 13): BRD4; format: cell-based; set-up: endogenous in cells; host or cells: MDA-MB-231, MDA-MB-468, SUM159; details: 48 hours after a single dose, Comparative Example 7 at 5 μM
Protocol: (§1) We extracted proteins in RIPA assay buffer containing protease and phosphatase inhibitors. We resolved extracts (30 μg) by SDS/PAGE and electrophoretically transferred to an Immun-Blot® PVDF membrane (Bio-Rad). Membranes were saturated in 3% non-fat dry milk or 3% BSA and probed overnight at 4° C. with antibodies (1:1,000 dilution unless otherwise indicated) to ERK5, BRD4, MEK5 and β-actin. We detected immunocomplexes by enhanced chemiluminescence with IgG coupled to horseradish peroxidase as the secondary anti-rabbit and anti-mouse antibodies (Abcam).
(§2) OS1 and OS11 degrade EKR5 at lower concentrations than Comparative Example 7. OS1 is efficacious at degrading ERK5 at doses of 0.1 μM and OS11 at 0.01 μM. In contrast, a dose of 5 μM of Comparative Example 7 is required to achieve analogous ERK5 degradation to 0.1 μM OS1 or 0.01 μM OS11.

[3] = target: ERK5 (Homo sapiens, UniProt Q13164); assay: Immunoblotting, comparison with Example 7 of WO2021061894 in MDA-MB-468 cells (FIGS. 12 and 13): ERK5; format: cell-based; set-up: endogenous in cells; host or cells: MDA-MB-468; details: 48 hours after a single dose, relative to b-actin
Protocol: as §1, §2

[4] = system: murine TNBC cell line EMT6 tumours; assay: In vivo efficacy in orthotopic immune-competent EMT6 TNBC model (FIG. 14.B); details: orthotopic EMT6, Balb/c mice

## CCOc1cc(C(=O)N2CCC(N3CCN(CCCCCCCC#Cc4cccc5c4CN(C4CCC(=O)NC4=O)C5=O)CC3)CC2)ccc1Nc1ncc2c(n1)N(S(C)(=O)=O)c1ccccc1C(=O)N2C (stereo not drawn) [OS11, 3-(4-(9-(4-(1-(3-Ethoxy-4-((5-methyl-11-(methylsulfonyl)-6-oxo-6,11-dihydro-5H-benzo[e]pyrimido[5,4-b][1,4]diazepin-2-yl)amino)benzoyl)piperidin-4-yl)piperazin-1-yl)non-1-yn-1-yl)-1-oxoisoindolin-2-yl)piperidine-2,6-dione]
[1]
  knockdown of ERK5 in vivo in PBMCs (derived from terminal blood samples): effective knockdown
  knockdown of ERK5 in vivo in the tumour compartment: effective knockdown
[2]
  degradation of off-target BRD4: do not cause degradation
[3]
  dose efficacious at degrading ERK5 (analogous ERK5 degradation): 0.01 μM
[4]; OS11 20 mg/kg plus PD1-inhibitor
  anti-tumour effect of combinatorial treatment with PD1 inhibition: no further effect beyond that of either agent alone
[4]; OS11 alone 20 mg/kg
  anti-tumour effect, agent alone: anti-tumour effect equal to that of PD1-inhibition
